In publication PMC6628272:
These are yes or no findings as the source states them, for the method shown. In cells and extracts the contact can be indirect. Some results given as binding are weak or reduced against the parent protein; the word gives no strength.

Protein sequences, listed by entry. Tags and fused reporters are not part of them.
UniProt P40763: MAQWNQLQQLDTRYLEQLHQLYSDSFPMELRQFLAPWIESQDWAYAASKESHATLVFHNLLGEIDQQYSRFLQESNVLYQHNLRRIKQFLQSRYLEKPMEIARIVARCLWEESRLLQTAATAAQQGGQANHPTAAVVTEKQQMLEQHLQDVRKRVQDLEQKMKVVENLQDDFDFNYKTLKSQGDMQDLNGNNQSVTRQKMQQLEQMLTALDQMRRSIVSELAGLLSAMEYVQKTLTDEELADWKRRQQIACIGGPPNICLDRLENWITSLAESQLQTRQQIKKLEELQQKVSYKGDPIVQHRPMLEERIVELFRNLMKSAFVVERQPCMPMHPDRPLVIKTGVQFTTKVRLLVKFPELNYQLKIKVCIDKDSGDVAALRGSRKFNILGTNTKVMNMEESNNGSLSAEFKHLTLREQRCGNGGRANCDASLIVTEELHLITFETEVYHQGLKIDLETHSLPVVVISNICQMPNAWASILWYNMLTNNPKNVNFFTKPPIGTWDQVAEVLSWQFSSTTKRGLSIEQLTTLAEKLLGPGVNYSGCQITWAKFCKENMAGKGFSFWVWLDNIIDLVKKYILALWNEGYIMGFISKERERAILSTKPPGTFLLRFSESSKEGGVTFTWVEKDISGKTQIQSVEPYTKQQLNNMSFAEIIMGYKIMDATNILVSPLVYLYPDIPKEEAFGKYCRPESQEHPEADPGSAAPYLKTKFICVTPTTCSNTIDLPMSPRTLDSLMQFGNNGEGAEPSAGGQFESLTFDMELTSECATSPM
UniProt Q09472: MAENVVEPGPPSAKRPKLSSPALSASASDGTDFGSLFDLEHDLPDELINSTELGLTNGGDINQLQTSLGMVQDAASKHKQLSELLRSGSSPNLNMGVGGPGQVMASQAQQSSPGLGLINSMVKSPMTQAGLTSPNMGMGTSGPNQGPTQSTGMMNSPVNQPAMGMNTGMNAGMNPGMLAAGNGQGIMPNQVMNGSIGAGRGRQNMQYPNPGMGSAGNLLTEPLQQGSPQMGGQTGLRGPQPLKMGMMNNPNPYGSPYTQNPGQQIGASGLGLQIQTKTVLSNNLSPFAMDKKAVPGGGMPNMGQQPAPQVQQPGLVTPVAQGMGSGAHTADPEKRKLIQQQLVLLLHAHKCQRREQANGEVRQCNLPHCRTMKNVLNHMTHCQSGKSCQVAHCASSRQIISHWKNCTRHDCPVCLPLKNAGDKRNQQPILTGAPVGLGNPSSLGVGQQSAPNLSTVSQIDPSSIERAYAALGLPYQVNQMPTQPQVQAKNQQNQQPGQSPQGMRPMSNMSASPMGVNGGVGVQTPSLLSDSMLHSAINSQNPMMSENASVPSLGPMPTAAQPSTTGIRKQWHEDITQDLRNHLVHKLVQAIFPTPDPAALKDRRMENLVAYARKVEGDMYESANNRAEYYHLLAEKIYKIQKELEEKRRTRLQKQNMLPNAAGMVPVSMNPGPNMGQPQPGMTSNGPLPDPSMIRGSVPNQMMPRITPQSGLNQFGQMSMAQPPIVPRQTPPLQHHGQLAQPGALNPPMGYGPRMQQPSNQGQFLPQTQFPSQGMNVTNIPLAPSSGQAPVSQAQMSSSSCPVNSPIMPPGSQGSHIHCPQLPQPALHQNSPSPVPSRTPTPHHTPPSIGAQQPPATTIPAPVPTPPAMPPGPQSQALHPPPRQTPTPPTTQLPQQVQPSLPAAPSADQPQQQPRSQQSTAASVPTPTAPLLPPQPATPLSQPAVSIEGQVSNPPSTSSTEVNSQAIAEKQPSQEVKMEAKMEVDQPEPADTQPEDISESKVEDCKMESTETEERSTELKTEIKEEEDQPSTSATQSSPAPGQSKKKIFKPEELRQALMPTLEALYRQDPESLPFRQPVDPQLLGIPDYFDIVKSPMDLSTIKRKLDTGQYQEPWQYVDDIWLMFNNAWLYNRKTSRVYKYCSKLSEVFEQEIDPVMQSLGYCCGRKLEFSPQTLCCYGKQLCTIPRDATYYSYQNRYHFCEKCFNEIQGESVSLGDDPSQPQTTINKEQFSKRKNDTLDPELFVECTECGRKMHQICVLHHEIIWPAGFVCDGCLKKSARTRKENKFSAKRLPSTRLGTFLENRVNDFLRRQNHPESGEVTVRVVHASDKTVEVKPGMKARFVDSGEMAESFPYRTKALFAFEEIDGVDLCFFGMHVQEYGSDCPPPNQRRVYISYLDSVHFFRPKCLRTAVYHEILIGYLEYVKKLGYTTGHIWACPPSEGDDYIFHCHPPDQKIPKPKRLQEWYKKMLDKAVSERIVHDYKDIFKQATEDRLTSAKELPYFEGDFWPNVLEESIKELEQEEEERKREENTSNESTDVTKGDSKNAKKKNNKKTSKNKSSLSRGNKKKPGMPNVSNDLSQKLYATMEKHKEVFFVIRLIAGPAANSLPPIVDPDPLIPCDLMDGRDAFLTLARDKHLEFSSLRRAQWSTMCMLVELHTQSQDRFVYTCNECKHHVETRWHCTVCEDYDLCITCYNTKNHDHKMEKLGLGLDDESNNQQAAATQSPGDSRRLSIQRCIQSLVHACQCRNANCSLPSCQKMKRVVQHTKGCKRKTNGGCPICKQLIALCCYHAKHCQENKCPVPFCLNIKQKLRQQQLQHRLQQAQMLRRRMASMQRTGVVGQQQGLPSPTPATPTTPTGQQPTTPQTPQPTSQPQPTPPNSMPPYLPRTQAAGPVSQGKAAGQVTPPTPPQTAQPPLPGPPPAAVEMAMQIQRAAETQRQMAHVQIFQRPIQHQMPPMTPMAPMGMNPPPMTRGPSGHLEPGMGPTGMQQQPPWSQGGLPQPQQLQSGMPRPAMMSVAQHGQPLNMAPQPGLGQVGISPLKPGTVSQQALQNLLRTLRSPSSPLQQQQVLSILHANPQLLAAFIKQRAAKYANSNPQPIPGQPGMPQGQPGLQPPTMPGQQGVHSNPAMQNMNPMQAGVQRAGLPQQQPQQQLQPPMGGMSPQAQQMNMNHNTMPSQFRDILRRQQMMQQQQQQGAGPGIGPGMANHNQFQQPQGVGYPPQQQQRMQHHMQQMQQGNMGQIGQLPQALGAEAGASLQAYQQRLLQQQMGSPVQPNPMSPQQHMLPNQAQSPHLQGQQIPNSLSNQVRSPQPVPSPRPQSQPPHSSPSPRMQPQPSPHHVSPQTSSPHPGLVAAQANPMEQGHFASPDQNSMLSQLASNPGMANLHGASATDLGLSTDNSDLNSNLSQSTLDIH

Biological target: Signal transducers and activators of transcription 3 (STAT3) (human (endogenous in MCF-7 and DU145)) (UniProt P40763)
Assay: co-IP; MCF-7 and DU145 cell lysates immunoprecipitated with STAT3 and p300 antibodies, protein A/G sepharose beads, immunoblotting; cells with or without lambertianic acid (LA) for 24 h

- binding: binds
Substance: p300 (from UniProt Q09472 1-2414)
